Assay results published in patent publication US9856294B2 (Commissariat A L'Energie Atomique Et Aux Energies …, priority 2010, dated 2018).
* marks the point of attachment. Trt = c1ccc(C(c2ccccc2)(c2ccccc2)*)cc1; Boc = CC(C)(C)OC(=O)*; OtBu = CC(C)(C)O*

Test: general procedure: Fmoc solid-phase peptide synthesis; 2-chlorotrityl chloride resin (substitution 0.4 mmol/g); PyBOP/DIEA
Conditions: for isolated mass / final HPLC purity / isolated yield: whole synthesis; for final HPLC purity: HPLC analysis; for final HPLC purity / isolated yield: scale of the general procedure 0.202 mmol

| Substance | isolated mass | final HPLC purity | isolated yield | conjugation yield (conjugation step) |
| --- | --- | --- | --- | --- |
| HArg(Pbf)-Cys(Trt)-Ser(tBu)-Pro-Gly-Ser(tBu)Cys(Trt)-Trp(Boc)Pro-Gly-OH | 52 mg | 96% | 19% yield |  |
| H-W(Boc)C(Trt)E(OtBu)PGE(OtBu)C(Trt)D(OtBu)PG-OH | 144 mg | 98% | 53% yield |  |
| P^3-TRITC |  |  |  | 8% yield |
